For part of these data: At least one compound was matched to its structure with a doubt left. Some entries share one result that the patent states for a list of compounds.
Experiments:
[1] = test system: Ishikawa human endometrial tumor cells; assay: Ishikawa Cell Proliferation Assay, antagonist mode (block of estradiol stimulation); format: cell-based; conditions: versus E2 (1 nM) alone
Description: (§1) Ishikawa Cell Proliferation Assay: This assay measures cell proliferation (using an alkaline phosphatase readout) in both an agonist mode in the presence of a compound of the present invention alone, and in an antagonist mode in which the ability of a compound of the present invention to block estradiol stimulation of growth is measured.
Ishikawa human endometrial tumor cells are maintained in MEM (minimum essential medium, with Earle's salts and L-Glutamine, Gibco BRL, Gaithersburg, Md.), supplemented with 10% fetal bovine serum (FBS) (V/V), (Gibco BRL). One day prior to assay, growth media is changed to assay medium, DMEM/F-12 (3:1) (Dulbecco's Modified Eagle Medium:Nutrient Mixture F-12, 3:1 Mixture, phenol red-free, Gibco BRL) supplemented with 5% dextran coated charcoal stripped fetal bovine serum (DCC-FBS) (Hyclone, Logen, Utah), L-Glutamine (2 mM), MEM sodium pyruvate (1 mM), HEPES (N-[2-hydroxyethyl]piperazine-N′-[2-ethanesulfonic acid] 2 mM) all from Gibco BRL). After an overnight incubation, Ishikawa cells are rinsed with Dulbecco's Phosphate Buffered Saline (1×) (D-PBS) without Ca^+2 and Mg^+2 (Gibco BRL), and trypsinized by a 3 minute incubation with 0.25% Trypsin/EDTA, phenol red-free (Gibco BRL). Cells are resuspended in assay medium and adjusted to 250,000 cells/mL. Approximately 25,000 cells in a 100 ul media are added to flat-bottom 96 wells microculture plates (Costar 3596) and incubated at 37° C. in a 5% CO2 humidified incubator for 24 hours. The next day, serial dilutions of compounds are prepared in assay medium (at 6 times the final concentration in the assay). The assay is run in dual mode, agonist and antagonist modes.
For the agonist mode, plates receive 25 μl/well of assay medium followed by 25 μl/well of a diluted compound of the present invention (at 6× the final concentrations). For the antagonist mode, plates receive 25 μl/well of 6 nM E2 (β-Estradiol, Sigma, St. Louis, Mo.) followed by 25 μl/well of a diluted compound of the present invention (at 6× the final concentrations). After an additional 48-hour incubation at 37° C. in a 5% CO2 humidified incubator, media is aspirated from wells and 100 μl fresh assay medium is added to each microculture. Serial dilutions of compounds are prepared and added to the cells as described above. After an additional 72 hour incubation at 37° C. in a 5% CO2 humidified incubator, the assay is quenched by removing media and rinsing plates twice in Dulbecco's Phosphate Buffered Saline (1×) (D-PBS) (Gibco BRL). The plates are dried for 5 minutes and frozen at −70° C. for at least 1 hour. The plates are then removed from the freezer and allowed to thaw at room temperature. To each well, 100 μl of 1-Step™ PNPP (Pierce Chemical Company, Rockford, Ill.) is added. After a 20-minute incubation, plates are read on a spectophotometer at 405 nm.
(§2) The data is fitted to a linear interpolation to derive EC50 (for agonist mode) or IC50 (for antagonist mode) values. For the antagonist mode, a % efficacy for each compound is calculated versus E2 (1 nM) alone. For the agonist mode, a % efficacy for each compound is calculated versus the response to tamoxifen.

[2] = test system: Ishikawa human endometrial tumor cells; assay: Ishikawa Cell Proliferation Assay, agonist mode (alkaline phosphatase readout); format: cell-based; conditions: compound alone
Description: as §1
Ishikawa human endometrial tumor cells are maintained in MEM (minimum essential medium, with Earle's salts and L-Glutamine, Gibco BRL, Gaithersburg, Md.), supplemented with 10% fetal bovine serum (FBS) (V/V), (Gibco BRL). […]
For the agonist mode, plates receive 25 μl/well of assay medium followed by 25 μl/well of a diluted compound of the present invention (at 6× the final concentrations). […] After a 20-minute incubation, plates are read on a spectophotometer at 405 nm.
as §2

Row | Compound | inhibition of the 1 nM estradiol response [1] | stimulation compared with tamoxifen [2]
1 | COc1ccc2c(Oc3ccc(OCCN4CCCCC4)cc3)c(-c3ccc(C(C)(C)O)cc3)ccc2c1 [Example 44] | > 80% | –
2 | Cl.OCc1ccc(-c2ccc3cc(O)ccc3c2Oc2ccc(OCCN3CCCCC3)cc2)cc1 [Example 41, 6-(4-Hydroxymethyl-phenyl)-5-[4-(2-piperidin-1-yl-ethoxy)-phenoxy]-naphthalen-2-ol, hydrochloride] | > 80% | –
3 | COC(=O)c1ccc(-c2ccc3cc(O)ccc3c2Oc2ccc(OCCN3CCCCC3)cc2)cc1.Cl [Example 5, 4-{6-Hydroxy-1-[4-(2-piperidin-1-yl-ethoxy)-phenoxy]-naphthalen-2-yl}-benzoic acid methyl ester hydrochloride] | > 80% | –
4 | CN(C)C(=O)c1cccc(-c2ccc3cc(O)ccc3c2Oc2ccc(OCCN3CCCCC3)cc2)c1.Cl [Example 8, 3-{6-Hydroxy-1-[4-(2-piperidin-1-yl-ethoxy)-phenoxy]-naphthalen-2-yl}-N,N-dimethylbenzamide, hydrochloride salt] | > 80% | –
5 | Cl.NC(=O)c1cccc(-c2ccc3cc(O)ccc3c2Oc2ccc(OCCN3CCCCC3)cc2)c1 [Example 1, 3-{6-Hydroxy-1-[4-(2-piperidin-1-yl-ethoxy)-phenoxy]-naphthalen-2-yl}-benzamide hydrochloride] | > 80% | –
6 | O=C(O)C(F)(F)F.O=C(O)c1cccc(-c2ccc3cc(O)ccc3c2Oc2ccc(OCCN3CCCCC3)cc2)c1 [Example 3, 3-{6-Hydroxy-1-[4-(2-piperidin-1-yl-ethoxy)-phenoxy]-naphthalen-2-yl}-benzoic acid trifluoroacetate] | > 80% | –
7 | O=C(O)C(F)(F)F.O=C(O)c1cccc2c1OC(c1ccc(OCCN3CCCCC3)cc1)c1c-2ccc2cc(O)ccc12 (stereo not drawn) [Example 35, 2-Hydroxy-5-[4-(2-piperidin-1-yl-ethoxy)-phenyl]-5H-6-oxa-chrysene-7-carboxylic acid trifluoroacetate] | > 80% | –
8 | COC(=O)c1cccc(-c2ccc3cc(O)ccc3c2Oc2ccc(OCCN3CCCCC3)cc2)c1.Cl [Example 2, 3-{6-Hydroxy-1-[4-(2-piperidin-1-yl-ethoxy)-phenoxy]-naphthalen-2-yl}-benzoic acid methyl ester hydrochloride] | > 80% | –
9 | OCc1ccc2c(c1)OC(c1ccc(OCCN3CCCCC3)cc1)c1c-2ccc2cc(O)ccc12 (racemic) [Example 37, 8-Hydroxymethyl-5-[4-(2-piperidin-1-yl-ethoxy)-phenyl]-5H-6-oxa-chrysen-2-ol] | > 80% | –
10 | OCc1ccc2c(c1)OC(c1ccc(OCCN3CCCCC3)cc1)c1c-2ccc2cc(O)ccc12 (stereo not drawn) [Example 39, 8-Hydroxymethyl-5-[4-(2-piperidin-1-yl-ethoxy)-phenyl]-5H-6-oxa-chrysen-2-ol] | > 80% | –
11 | Cl.O=C(O)c1ccc(-c2ccc3cc(O)ccc3c2Oc2ccc(OCCN3CCCCC3)cc2)cc1 [Example 6, 4-{6-Hydroxy-1-[4-(2-piperidin-1-yl-ethoxy)-phenoxy]-naphthalen-2-yl}-benzoic acid hydrochloride] | > 80% | –
12 | Cl.O=C1NCc2cc(-c3ccc4cc(O)ccc4c3Oc3ccc(OCCN4CCCCC4)cc3)ccc21 [Example 11, 5-{6-Hydroxy-1-[4-(2-piperidin-1-yl-ethoxy)-phenoxy]-naphthalen-2-yl}-2,3-dihydro-isoindol-1-one Hydrochloride] | > 80% | –
13 | CC(O)c1ccc(-c2ccc3cc(O)ccc3c2Oc2ccc(OCCN3CCCCC3)cc2)cc1.Cl (stereo not drawn) [Example 43, 6-[4-(1-Hydroxy-ethyl)-phenyl]-5-[4-(2-piperidin-1-yl-ethoxy)-phenoxy]-naphthalen-2-ol hydrochloride] | > 80% | less stimulatory than tamoxifen
14 | COc1ccc2c3c(ccc2c1)-c1ccc(CO)cc1OC3c1ccc(OCCN2CCCCC2)cc1 (stereo not drawn) [Example 36, {2-Methoxy-5-[4-(2-piperidin-1-yl-ethoxy)-phenyl]-5H-6-oxa-chrysen-8-yl}-methanol] | > 80% | –

Source: patent US20070111988A1, “Selective estrogen receptor modulators” (ELI LILLY AND COMPANY, priority 2004, published 2007)
